Measured values taken from article PMC10790784.
These are yes or no findings as the source states them, for the method shown. Binding seen in cells or lysates may run through a third protein. Some entries that bind do so weakly or less than the wild type.

Sequences of proteins named here, by UniProt entry; tags and fusion partners are left off. Residues count along the entry.
UniProt Q9QR71, residues 1-435: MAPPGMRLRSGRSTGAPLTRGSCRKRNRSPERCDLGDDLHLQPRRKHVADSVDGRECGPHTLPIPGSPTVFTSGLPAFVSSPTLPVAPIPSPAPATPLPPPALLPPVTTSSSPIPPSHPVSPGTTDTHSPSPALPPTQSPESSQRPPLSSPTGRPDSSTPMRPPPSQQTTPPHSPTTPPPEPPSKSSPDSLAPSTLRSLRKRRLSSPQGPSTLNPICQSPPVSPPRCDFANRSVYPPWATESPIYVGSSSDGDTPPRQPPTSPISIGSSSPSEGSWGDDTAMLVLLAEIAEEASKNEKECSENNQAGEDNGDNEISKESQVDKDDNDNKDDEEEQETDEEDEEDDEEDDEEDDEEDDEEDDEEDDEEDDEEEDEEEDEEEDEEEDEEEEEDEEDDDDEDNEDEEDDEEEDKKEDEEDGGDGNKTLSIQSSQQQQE
UniProt Q16665: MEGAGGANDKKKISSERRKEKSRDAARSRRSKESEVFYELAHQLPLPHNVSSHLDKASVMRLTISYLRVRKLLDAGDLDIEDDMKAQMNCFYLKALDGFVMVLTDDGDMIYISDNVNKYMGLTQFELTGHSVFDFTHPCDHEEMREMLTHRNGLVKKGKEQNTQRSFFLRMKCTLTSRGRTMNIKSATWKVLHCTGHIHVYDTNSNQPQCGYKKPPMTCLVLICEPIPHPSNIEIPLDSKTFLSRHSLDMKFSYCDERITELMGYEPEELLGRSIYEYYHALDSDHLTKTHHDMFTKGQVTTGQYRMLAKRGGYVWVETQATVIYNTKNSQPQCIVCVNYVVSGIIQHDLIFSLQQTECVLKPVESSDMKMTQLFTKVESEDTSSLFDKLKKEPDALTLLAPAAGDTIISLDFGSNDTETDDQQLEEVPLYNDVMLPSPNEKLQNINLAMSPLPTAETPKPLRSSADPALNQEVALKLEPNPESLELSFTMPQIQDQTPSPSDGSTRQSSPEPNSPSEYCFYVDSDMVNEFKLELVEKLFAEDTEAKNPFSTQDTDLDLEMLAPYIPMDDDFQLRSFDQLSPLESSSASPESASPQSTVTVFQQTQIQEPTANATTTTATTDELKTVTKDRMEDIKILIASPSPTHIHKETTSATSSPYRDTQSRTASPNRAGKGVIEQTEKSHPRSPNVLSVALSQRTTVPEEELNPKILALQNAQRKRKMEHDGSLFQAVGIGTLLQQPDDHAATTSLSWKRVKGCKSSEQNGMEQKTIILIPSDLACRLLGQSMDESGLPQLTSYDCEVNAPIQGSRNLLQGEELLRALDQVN

Biological target: GST-tagged N-terminal domain of LANA (1-435 amino acids) (KSHV) (UniProt Q9QR71)
Assay: pull-down; only the target purified

Row | Substance | binding
1 | Myc-HIF1α (from UniProt Q16665 1-826) | binds
2 | hypoxia inducible factor HIF1α, endogenous (from UniProt Q16665 1-826) | binds
